Laboratory results as given in article PMC10163288.
Some of the results follow.

B1: il10ra_site1_normal_mot_HHH_b2_00479_000000091_0001_1_12_H_._HHH_b2_01030_af2_0001_0000300029_0000002_0 (protein)
chain: SSSSDEVTDELYKLIREALELRANGNPEEAREILKEAEELAEENNNFTFLFAVRLVLRDLNSSSS
B2: il10ra_site1_sap_25_mot_HHH_b2_03220_af2_000000223_0001_23_40_H_._HHH_b2_06465_0001_0000200025_0000001_0_0001 (protein)
chain: DAHERAKEVAELLREDPEEALEFLEELVERTGDPTLEFMLMALRLMLENNDEEALEALIDLFQRQ
B3: il10ra_site1_sap_27_mot_HHH_b2_02053_af2_000000006_0001_3_19_H_._HHH_b1_03549_0001_0000100010_0000001_0_0001 (protein)
chain: SSSSDRNERVWEILKRILEAIADGDEEEARELLEEAQKLAEEANNWVARFSIRLLERRLELSSSS
B4: il10ra_site1_normal_mot_HHH_b1_03859_af2_000000004_0001_44_57_H_._HHH_b2_00423_0001_0000200004_0000001_0_af2pred_0001 (protein)
chain: SSSSSSEEVVRRLLRAAEFILERGNPEKAKLALRLARFIAERANDPELEELVEEVQERVRSSSSS
B5: il10ra_site1_sap_16_mot_ems_p1-15H-GBL-16H-GABBL-16H_0048_0001_0001_0001_af2_000000267_0001_19_34_H_._5d0551e3c4357af680d60aaa850e4cea_0001_1_0001_0000200002_00 … (protein)
chain: SSSSDEEERELVEAAVRMAKQVSERVVEFLLMAAEMLAEELNDPELRELVEELREYLEELSSSSS
B6: il10ra_site1_sap_13_mot_HHH_b2_06664_af2_000000263_0001_19_36_H_._HHH_b1_05947_0001_0000200013_0000001_0_0001 (protein)
chain: DEEKEEELIELIAEAMGVPPELVREAIKQLERQNGDPRLALEAIARAAWASAPPELREELERALK
B7: il10ra_site1_sap_20_mot_HHH_b1_03314_af2_000000278_0001_42_55_H_._ems_3hM_198_af2_0001_0000400014_0000001_0_0001 (protein)
chain: SSSSSDAQRVWELIREAFEALRQGDEEEARELLEEAEEIAEEANNPVMESVLRLLKKLIDSSSSS
B8: il10ra_site1_normal_mot_HHH_b2_02116_af2_000000165_0001_41_55_H_._HHH_b2_02224_af2_0001_0000100003_0000001_0 (protein)
chain: SSSSSEEEHLVRAALRLAREALREGNPRSARLLVESAALLAEENNNEELLEEAERLREELESSSS
B9: il10ra_site1_sap_22_mot_HHH_b1_05056_000000217_0001_1_20_H_._HHH_b2_05482_0001_0000200018_0000001_0_0001 (protein)
chain: SSSSSDVEELLEEAEKLIEDGNPEEALRVLQEALEAIYRRGDEELLQELWELLKELVERGSSSSS
B10: il10ra_site1_sap_18_mot_HHH_b2_04275_000000272_0001_20_36_H_._HHH_b1_07345_af2_0001_0000300023_0000001_0_0001_af2pred_dldesign_0_af2pred (protein)
chain: EKEKLEKIKKLLEELDTPHARALLYLIDQLESRGYKPSEIIEALKNAAELLGDEEILKAIDEALK

target: il10ra, Q13651; experiment: yeast display titration

Apparent Kd, inactive:
B1 no binding seen, B2 no binding seen, B3 no binding seen, B4 no binding seen, B5 no binding seen, B6 no binding seen, B7 no binding seen, B8 no binding seen, B9 no binding seen, B10 no binding seen
